From publication PMC4735750
Results are given in words; binding and its absence hold for the method and conditions named. Binding seen in cells or lysates may run through a third protein. Some entries that bind do so weakly or less than the wild type. For part of these data: Where a sequence is shown, tags or fusion partners need not be part of it.

Chains of the proteins cited; added tags and fusions are not shown.
UniProt O60934: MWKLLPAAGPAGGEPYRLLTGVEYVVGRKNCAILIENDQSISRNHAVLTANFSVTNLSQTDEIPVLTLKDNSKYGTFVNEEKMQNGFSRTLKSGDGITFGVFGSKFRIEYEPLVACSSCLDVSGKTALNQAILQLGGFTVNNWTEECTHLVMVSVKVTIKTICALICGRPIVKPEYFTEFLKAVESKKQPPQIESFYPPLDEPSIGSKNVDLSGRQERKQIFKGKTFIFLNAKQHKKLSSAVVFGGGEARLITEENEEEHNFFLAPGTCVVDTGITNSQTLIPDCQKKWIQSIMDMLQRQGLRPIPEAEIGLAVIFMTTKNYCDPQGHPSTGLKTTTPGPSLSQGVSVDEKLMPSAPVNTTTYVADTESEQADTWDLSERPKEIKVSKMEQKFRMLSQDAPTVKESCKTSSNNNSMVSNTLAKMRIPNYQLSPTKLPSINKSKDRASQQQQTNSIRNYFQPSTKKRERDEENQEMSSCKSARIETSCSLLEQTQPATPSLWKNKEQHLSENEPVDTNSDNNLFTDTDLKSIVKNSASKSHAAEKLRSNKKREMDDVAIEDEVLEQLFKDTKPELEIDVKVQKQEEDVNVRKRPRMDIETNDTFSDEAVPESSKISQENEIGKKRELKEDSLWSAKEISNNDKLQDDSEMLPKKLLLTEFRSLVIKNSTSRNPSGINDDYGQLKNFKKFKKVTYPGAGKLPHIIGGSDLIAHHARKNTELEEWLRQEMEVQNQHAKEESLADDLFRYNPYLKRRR
UniProt Q14676: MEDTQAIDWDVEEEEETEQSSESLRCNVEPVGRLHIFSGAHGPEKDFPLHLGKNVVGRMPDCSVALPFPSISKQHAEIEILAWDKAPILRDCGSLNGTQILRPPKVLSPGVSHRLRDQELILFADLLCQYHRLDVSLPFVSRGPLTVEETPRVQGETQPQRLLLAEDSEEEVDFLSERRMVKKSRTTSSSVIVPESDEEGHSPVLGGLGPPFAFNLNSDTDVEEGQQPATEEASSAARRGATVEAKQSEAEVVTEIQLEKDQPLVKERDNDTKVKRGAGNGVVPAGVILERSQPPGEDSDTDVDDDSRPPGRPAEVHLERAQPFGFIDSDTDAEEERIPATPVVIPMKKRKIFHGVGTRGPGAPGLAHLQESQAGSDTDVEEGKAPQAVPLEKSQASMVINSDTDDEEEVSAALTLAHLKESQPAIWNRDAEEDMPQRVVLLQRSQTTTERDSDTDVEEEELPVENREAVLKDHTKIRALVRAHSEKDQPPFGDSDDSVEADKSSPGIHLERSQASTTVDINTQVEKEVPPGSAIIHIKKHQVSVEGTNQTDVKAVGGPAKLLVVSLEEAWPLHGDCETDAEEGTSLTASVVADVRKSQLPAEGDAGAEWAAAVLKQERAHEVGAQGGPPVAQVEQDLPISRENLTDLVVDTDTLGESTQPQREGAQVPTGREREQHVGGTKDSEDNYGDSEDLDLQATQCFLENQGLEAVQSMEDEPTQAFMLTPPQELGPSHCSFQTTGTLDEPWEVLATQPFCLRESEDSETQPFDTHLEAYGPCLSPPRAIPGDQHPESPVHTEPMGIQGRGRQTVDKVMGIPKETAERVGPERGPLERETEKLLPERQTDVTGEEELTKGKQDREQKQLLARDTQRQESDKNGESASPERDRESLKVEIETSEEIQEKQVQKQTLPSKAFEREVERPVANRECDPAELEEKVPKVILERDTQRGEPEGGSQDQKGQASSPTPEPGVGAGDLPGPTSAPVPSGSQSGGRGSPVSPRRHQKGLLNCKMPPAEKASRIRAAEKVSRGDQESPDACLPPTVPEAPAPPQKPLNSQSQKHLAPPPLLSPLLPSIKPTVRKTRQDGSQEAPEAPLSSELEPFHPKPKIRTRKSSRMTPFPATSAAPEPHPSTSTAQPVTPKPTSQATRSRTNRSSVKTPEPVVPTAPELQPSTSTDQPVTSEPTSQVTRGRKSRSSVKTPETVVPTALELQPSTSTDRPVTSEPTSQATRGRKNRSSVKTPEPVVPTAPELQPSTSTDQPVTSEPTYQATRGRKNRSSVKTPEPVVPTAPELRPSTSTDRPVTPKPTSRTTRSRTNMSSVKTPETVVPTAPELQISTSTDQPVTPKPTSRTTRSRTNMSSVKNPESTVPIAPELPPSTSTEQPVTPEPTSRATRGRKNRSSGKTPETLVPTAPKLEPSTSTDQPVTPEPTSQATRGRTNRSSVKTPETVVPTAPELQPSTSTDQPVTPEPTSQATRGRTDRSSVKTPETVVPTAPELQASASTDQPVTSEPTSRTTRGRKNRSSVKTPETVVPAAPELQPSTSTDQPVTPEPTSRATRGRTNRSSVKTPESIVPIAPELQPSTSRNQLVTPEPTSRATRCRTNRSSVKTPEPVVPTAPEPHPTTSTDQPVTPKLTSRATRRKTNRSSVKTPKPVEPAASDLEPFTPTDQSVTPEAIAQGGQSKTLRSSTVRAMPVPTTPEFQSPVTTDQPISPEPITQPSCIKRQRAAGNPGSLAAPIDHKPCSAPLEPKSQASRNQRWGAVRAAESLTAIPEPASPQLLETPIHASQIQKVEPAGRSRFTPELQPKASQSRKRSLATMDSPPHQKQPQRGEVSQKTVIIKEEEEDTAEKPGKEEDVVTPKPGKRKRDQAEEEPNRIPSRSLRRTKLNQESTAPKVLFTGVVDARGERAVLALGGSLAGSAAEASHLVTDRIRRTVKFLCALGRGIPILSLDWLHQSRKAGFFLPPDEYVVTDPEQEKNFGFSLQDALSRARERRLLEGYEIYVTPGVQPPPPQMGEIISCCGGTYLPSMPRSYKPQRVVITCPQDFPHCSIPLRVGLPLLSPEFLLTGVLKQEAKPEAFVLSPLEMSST
UniProt Q92878: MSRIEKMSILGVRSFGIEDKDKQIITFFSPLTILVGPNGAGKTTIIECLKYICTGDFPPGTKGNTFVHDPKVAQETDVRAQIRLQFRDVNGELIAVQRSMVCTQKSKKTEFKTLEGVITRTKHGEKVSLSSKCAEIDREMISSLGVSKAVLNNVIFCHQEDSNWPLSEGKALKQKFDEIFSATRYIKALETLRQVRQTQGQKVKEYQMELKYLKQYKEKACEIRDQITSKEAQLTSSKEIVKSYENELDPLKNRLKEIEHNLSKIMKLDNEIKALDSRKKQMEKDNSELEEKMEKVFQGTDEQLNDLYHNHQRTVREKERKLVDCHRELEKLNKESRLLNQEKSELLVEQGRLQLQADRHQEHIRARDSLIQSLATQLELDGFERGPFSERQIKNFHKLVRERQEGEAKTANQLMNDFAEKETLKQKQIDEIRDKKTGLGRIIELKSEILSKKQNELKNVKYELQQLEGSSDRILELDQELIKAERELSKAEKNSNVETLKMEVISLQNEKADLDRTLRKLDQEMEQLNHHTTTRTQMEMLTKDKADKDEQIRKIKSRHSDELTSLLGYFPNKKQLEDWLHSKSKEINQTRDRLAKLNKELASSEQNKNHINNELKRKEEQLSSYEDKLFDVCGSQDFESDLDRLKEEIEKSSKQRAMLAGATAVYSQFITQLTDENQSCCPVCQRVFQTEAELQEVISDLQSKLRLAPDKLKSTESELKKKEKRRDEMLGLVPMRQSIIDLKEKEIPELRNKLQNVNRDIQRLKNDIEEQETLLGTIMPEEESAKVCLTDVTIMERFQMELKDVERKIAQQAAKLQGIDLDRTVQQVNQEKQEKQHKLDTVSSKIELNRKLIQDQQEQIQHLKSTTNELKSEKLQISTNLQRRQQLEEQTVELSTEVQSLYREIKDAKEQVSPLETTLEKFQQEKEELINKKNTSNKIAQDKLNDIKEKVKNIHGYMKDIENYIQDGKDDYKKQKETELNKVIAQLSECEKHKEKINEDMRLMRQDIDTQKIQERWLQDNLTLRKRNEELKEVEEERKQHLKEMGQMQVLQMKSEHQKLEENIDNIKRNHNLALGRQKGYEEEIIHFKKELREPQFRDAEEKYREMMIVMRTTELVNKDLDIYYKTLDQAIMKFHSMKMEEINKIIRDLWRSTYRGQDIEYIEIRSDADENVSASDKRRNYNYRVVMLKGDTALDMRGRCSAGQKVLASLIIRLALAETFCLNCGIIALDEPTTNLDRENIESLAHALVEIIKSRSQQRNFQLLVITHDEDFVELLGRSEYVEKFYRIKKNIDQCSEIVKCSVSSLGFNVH

Assays:
[1] = target: T1, FLAG-tagged Treacle (mouse Tcof1, full length) (mouse) (UniProt O08784); assay: co-IP; anti-FLAG agarose from lysates of Tcof1/293-FRT and 293-FRT cells (50 mM Tris-HCl pH 7.5, 120 mM NaCl, 0.5% NP-40, 1 mM EDTA; benzonase-treated), 4 °C overnight, western blot
T1 sequence: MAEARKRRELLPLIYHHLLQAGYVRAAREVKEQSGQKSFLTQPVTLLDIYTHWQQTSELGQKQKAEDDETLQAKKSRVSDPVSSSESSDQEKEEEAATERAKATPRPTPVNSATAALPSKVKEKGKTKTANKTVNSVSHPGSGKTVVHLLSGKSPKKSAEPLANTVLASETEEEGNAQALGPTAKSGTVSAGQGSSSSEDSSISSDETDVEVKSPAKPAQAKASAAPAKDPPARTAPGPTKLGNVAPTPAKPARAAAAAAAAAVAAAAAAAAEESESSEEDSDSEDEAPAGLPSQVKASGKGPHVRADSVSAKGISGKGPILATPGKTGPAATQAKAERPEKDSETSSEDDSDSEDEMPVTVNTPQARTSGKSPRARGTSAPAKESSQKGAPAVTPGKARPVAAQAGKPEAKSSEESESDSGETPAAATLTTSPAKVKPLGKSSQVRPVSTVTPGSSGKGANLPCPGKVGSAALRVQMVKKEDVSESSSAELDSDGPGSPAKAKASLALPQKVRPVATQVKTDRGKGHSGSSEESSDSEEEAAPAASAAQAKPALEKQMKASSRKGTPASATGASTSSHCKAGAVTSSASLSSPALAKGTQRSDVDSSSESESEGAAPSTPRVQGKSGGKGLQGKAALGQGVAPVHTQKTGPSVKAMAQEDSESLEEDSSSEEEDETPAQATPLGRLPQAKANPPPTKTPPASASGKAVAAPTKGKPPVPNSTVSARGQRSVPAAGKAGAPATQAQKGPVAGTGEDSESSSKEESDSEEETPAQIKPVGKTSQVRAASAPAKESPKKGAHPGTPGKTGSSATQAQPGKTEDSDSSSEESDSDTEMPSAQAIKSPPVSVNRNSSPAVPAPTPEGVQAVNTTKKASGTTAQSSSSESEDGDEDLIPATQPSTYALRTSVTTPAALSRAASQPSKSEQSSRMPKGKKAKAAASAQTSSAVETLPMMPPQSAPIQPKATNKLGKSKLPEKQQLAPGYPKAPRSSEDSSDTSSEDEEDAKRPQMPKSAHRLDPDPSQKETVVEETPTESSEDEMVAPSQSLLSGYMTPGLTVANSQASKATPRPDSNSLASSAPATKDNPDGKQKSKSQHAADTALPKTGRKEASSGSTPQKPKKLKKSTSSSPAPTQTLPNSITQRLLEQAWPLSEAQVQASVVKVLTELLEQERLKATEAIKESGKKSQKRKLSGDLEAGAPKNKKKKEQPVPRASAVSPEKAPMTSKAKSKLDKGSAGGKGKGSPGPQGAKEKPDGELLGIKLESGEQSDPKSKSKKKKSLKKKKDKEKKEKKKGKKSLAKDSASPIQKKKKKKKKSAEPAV

[2] = target: T2, endogenous Treacle (TCOF1) (human (endogenous in HEK293-T)) (UniProt Q13428); assay: co-IP; anti-TCOF1 antibody and Protein A-sepharose from lysate of non-irradiated HEK293-T cells (50 mM Tris-HCl pH 7.5, 120 mM NaCl, 0.5% NP-40, 1 mM EDTA; benzonase-treated), 4 °C, western blot; control without antibody
T2 sequence: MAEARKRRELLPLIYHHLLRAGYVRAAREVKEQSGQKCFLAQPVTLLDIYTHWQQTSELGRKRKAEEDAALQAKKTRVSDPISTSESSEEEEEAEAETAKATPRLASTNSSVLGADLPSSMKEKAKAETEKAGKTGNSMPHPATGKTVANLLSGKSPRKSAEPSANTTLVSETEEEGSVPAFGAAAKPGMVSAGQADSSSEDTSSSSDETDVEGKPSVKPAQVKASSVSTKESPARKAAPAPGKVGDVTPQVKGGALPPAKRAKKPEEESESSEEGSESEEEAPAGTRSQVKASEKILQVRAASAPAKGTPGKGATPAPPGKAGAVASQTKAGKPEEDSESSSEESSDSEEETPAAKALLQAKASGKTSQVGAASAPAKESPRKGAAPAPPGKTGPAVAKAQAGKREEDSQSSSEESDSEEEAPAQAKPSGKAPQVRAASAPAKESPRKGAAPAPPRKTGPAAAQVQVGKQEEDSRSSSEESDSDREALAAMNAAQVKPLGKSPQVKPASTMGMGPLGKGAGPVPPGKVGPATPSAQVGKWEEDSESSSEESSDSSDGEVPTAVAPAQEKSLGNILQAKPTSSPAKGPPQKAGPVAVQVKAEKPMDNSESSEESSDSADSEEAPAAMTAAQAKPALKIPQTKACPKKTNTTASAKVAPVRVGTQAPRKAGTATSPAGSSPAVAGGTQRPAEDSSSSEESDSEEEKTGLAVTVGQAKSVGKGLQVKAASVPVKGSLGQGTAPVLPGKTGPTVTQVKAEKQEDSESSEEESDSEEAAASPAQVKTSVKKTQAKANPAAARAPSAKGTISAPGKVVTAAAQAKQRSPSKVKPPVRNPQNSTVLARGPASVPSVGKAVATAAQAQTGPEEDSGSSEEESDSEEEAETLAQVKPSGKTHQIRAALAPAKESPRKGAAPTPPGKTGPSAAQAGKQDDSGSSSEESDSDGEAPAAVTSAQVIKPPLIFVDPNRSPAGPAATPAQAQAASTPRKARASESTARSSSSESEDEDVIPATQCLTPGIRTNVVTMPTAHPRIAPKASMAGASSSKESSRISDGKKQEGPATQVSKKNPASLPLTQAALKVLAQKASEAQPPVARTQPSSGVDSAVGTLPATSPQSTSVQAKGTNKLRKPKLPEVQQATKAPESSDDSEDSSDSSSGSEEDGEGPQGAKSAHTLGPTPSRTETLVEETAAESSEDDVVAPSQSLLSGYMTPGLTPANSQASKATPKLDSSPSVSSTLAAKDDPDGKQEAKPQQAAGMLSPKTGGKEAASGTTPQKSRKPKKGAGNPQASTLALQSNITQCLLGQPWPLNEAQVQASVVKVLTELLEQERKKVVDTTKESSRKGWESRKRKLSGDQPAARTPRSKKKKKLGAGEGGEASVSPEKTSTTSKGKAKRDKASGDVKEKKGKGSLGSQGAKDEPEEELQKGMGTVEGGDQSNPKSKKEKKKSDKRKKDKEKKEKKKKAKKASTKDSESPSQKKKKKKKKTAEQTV

| binding [1] | binding [2] | Substance |
| --- | --- | --- |
| binds | binds | endogenous Nbs1 (from UniProt O60934 1-754) |
| binds | binds | endogenous MDC1 (from UniProt Q14676 1-2089) |
| binds | binds | endogenous Rad50 (from UniProt Q92878 1-1312) |
